In paper PMC10564737, “Structure-based design of a phosphotyrosine-masked covalent ligand targeting the E3 ligase SOCS2” (Nature Communications, 2023):
Several values for one entry are separate records, joined by “and”; a condition that tells them apart may be missing. Identical values can stand only once. This continues a long series; more values of the same kind are listed elsewhere.

Chains of the proteins cited; added tags and fusions are not shown. Residues count along the entry.
UniProt O14508, 32-198: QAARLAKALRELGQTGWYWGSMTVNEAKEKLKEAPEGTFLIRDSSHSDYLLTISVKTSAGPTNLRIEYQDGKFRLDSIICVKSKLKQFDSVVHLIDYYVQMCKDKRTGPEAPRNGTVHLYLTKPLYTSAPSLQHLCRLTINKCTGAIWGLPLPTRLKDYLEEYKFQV

Target: T1, SBC2 (Homo sapiens, UniProt O14508)
T1 construct: SOCS2 (amino acids 32–198); His6 (N, cleaved yes); made in house; host or cells: E. coli BL21(DE3)
Experiment: Covalent fluorescence polarization (FP) probe displacement assay
Format: binding
Excerpt: With the specific covalent modification of Cys111 established, we decided to fully characterize MN551 as a covalent SOCS2 inhibitor. […] (Fig. 2g, h, Supplementary Fig. 9). Due to the covalent nature of the competing inhibitor, a time-dependent reduction in the fraction of protein-bound probe is observed. […] This value illustrates reasonable specificity for a covalent inhibitor, with nonetheless scope for future optimization. In addition to characterizing the kinetic covalency parameters, we have also assessed the stability of the MN551 by monitoring its reactivity (half-life >70 min) with reduced glutathione (GSH) (Supplementary Fig. 10)[35].
To monitor the SBC2-ligand binding kinetics we designed a fluorescein-labeled small-molecule probe - compound 26. The fluorescence polarization (anisotropy) of a threefold serial dilution of 50 µM SBC2 in 10 nM of the probe in 100 mM HEPES pH 7.5, 50 mM NaCl, 0.5 mM TCEP, 2% DMSO was measured to determine the KL (Supplementary Fig. 9A) (BMG Labtech PHERAstar – firmware v1.33). Protein titration and the curves were fitted using GraphPad Prism 9, using one-site fitting models to determine the probe binding constant, KL. Samples were run in triplicate in 384 well plates, using a total volume per well of 16 μL. The bound fraction of the probe is measure using the equation:1 Fb=Af−A/Af−Ab Where,
A time-dependent reduction in probe anisotropy were measured for a 2-fold serial dilution of […] compound MN551 in 10 nM probe +300 μM SBC2. To determine the initial reversible binding affinity, the initial bound fraction of the probe at time = 0, Fbo (the y-intercept in Fb v/s Time plot, Supplementary Fig. 9B) was plotted against MN551 concentration, and the obtained IC50 is then converted to Ki (Supplementary Fig. 9C)[17]. The slope from Fb versus time graph when divided by Fbo gives rate of covalency, kobs. A plot of kobs v/s MN551 concentration using Michaelis–Menten model of GraphPad Prism 9, provides the parameters kinact (maximum potential rate of inactivation) and KI (concentration of MN551 at which kobs = kinact/2) (Supplementary Fig. 9D, E).
The observed first-order rate constant, kobs is related to KI and kinact by the equation:2 kobs=kinactI/KI+I
At [I]«[KI] the above equation is converted to3 […]
The slope from the plot of kobs against concentration of MN551 gives us the covalent efficiency parameter kinact/KI (Supp Fig. 9F)[30],[33].

[1] = MN551 195.312 nM; Cycle 6 (25 min)
[2] = MN551 195.312 nM; Cycle 7 (30 min)
[3] = MN551 195.312 nM; Cycle 8 (35 min)
[4] = MN551 195.312 nM; Cycle 9 (40 min)
[5] = MN551 195.312 nM; Cycle 10 (45 min)
[6] = MN551 195.312 nM; Cycle 11 (50 min)
[7] = MN551 195.312 nM; Cycle 12 (55 min); n=1
[8] = MN551 195.312 nM; Cycle 13 (60 min); n=1
[9] = MN551 195.312 nM; Cycle 14 (65 min); n=1
[10] = MN551 195.312 nM; Cycle 15 (70 min); n=1
[11] = MN551 195.312 nM; Cycle 16 (75 min); n=1
[12] = MN551 260.308 nM, Cycle 8 (35 min)
[13] = MN551 260.308 nM, Cycle 9 (40 min)
[14] = MN551 260.308 nM, Cycle 10 (45 min)
[15] = MN551 260.308 nM, Cycle 11 (50 min)
[16] = MN551 260.308 nM, Cycle 16 (75 min), n=1
[17] = MN551 260.308 nM, Cycle 17 (80 min), n=1
[18] = MN551 260.308 nM, Cycle 18 (85 min), n=1
[19] = MN551 260.308 nM; Cycle 7 (30 min)
[20] = MN551 260.308 nM; Cycle 8 (35 min)
[21] = MN551 260.308 nM; Cycle 9 (40 min)
[22] = MN551 260.308 nM; Cycle 10 (45 min)
[23] = MN551 260.308 nM; Cycle 11 (50 min)
[24] = MN551 260.308 nM; Cycle 12 (55 min); n=1
[25] = MN551 260.308 nM; Cycle 13 (60 min); n=1
[26] = MN551 260.308 nM; Cycle 14 (65 min); n=1
[27] = MN551 260.308 nM; Cycle 15 (70 min); n=1

O=C(CCl)Nc1cccc(CNC(=O)[C@H](Cc2ccc(OP(=O)(O)O)cc2)NC(=O)Cc2ccc(F)cc2)c1 [MN551]
Anisotropy (MN551 195.312 nM, Cycle 18 (85 min), n=1): 266.8 and 267.2 and 267.6 | Fb, fraction bound (MN551 195.312 nM; Cycle 3 (10 min)): 0.955 and 1 and 0.99 | Fb, fraction bound (MN551 195.312 nM; Cycle 4 (15 min)): 0.9705 and 0.9535 and 0.9653 | Fb, fraction bound (MN551 195.312 nM; Cycle 5 (20 min)): 0.9351 and 1.007 and 0.9807 | Anisotropy data 485,520,520 [1]: 274.9 and 279 and 277 | Fb [1]: 0.9521 and 0.9704 and 0.949 | Fb, fraction bound [1]: 0.9546 and 1.015 and 0.9671 | Anisotropy data 485,520,520 [2]: 275.1 and 274.5 and 277.1 | Fb [2]: 0.999 and 0.9504 and 0.9981 | Fb, fraction bound [2]: 0.9641 and 0.9963 and 1.003 | Anisotropy [3]: 277 and 278 and 277.1 | Anisotropy data 485,520,520 [3]: 274.5 and 272.6 and 275.9 | Fb [3]: 0.9747 and 0.9241 and 0.9792 and 0.976 and 0.9758 and 0.9765 | Anisotropy [4]: 275.8 and 276.7 and 274.6 | Anisotropy data 485,520,520 [4]: 271.1 and 271.6 and 274.3 | Fb [4]: 0.9651 and 0.9279 and 0.97 and 0.9519 and 0.9792 and 0.9643 | Anisotropy [5]: 275.8 and 274.1 and 274.4 | Anisotropy data 485,520,520 [5]: 272.7 and 272.1 and 273.8 | Fb [5]: 0.998 and 0.9437 and 0.9769 and 0.9616 and 0.9688 and 0.9656 | Anisotropy [6]: 275.6 and 275.2 and 274.2 | Anisotropy based on Raw Data (485) [6]: 274.6 and 272.8 and 268.7 | Anisotropy (MN551 195.312 nM; Cycle 11 (50 min); n=1): 270.5 and 271.3 and 274.6 | Anisotropy [7]: 268.5 and 272.6 and 271 | Anisotropy based on Raw Data (485) [7]: 275.2 and 269.4 and 267.2 | Anisotropy [8]: 267.5 and 266.1 and 267.7 | Anisotropy based on Raw Data (485) [8]: 274 and 271.2 and 267.3 | Anisotropy [9]: 267.3 and 269.3 and 268.4 | Anisotropy based on Raw Data (485) [9]: 271.8 and 269.5 and 265.4 | Anisotropy [10]: 267.5 and 266.8 and 268.2 | Anisotropy based on Raw Data (485) [10]: 273.4 and 268.3 and 266.3 | Anisotropy [11]: 265 and 265.7 and 266.3 | Anisotropy based on Raw Data (485) [11]: 269.5 and 268.6 and 267.2 | Anisotropy data 485,520,520 (MN551 195.312 nM; Cycle 19 (90 min); n=1): 265.7 and 268.5 and 265.9 | Anisotropy data 485,520,520 (MN551 195.312 nM; Cycle 20 (95 min); n=1): 265.8 and 266.4 and 264.8 | Fb (MN551 260.308 nM, Cycle 7 (30 min)): 0.9423 and 0.7798 and 0.7969 | Anisotropy based on Raw Data (485) [12]: 269 and 265.5 and 267.4 | Fb [12]: 0.7982 and 0.7952 and 0.7751 | Anisotropy based on Raw Data (485) [13]: 267.7 and 265.2 and 261.8 | Fb [13]: 0.8802 and 0.7701 and 0.7652 | Anisotropy based on Raw Data (485) [14]: 265.7 and 264.9 and 261.2 | Fb [14]: 0.8219 and 0.7745 and 0.7789 | Anisotropy based on Raw Data (485) [15]: 266.1 and 263.8 and 262.3 | Fb [15]: 0.9343 and 0.7485 and 0.7812 | Anisotropy (MN551 260.308 nM, Cycle 13 (60 min), n=1): 259.4 and 257.8 and 259.5 | Anisotropy (MN551 260.308 nM, Cycle 14 (65 min), n=1): 260.3 and 257.8 and 257.1 | Anisotropy (MN551 260.308 nM, Cycle 15 (70 min), n=1): 258.9 and 256.9 and 257.3 | Anisotropy [16]: 258.7 and 255.2 and 256.6 | Normalised anisotropy (0 nM MN551 = 1, free probe = 0) [16]: 0.8414 and 0.8288 and 0.8384 | Anisotropy [17]: 257.6 and 256.5 and 255.1 | Anisotropy based on Raw Data (485) [17]: 258 and 258.1 and 255.5 | Normalised anisotropy (0 nM MN551 = 1, free probe = 0) [17]: 0.8538 and 0.8338 and 0.8496 | Anisotropy [18]: 257 and 252.2 and 251.6 | Normalised anisotropy (0 nM MN551 = 1, free probe = 0) [18]: 0.8577 and 0.8084 and 0.8398 | Fb, fraction bound (MN551 260.308 nM; Cycle 4 (15 min)): 0.884 and 0.8897 and 0.9103 | Fb, fraction bound (MN551 260.308 nM; Cycle 5 (20 min)): 0.9118 and 0.8725 and 0.9048 | Fb, fraction bound (MN551 260.308 nM; Cycle 6 (25 min)): 0.8859 and 0.8781 and 0.8833 | Anisotropy data 485,520,520 [19]: 276.8 and 254.5 and 255.7 | Fb [19]: 0.921 and 0.9315 and 0.957 | Fb, fraction bound [19]: 0.8603 and 0.8614 and 0.8952 | Anisotropy [20]: 265.5 and 264.5 and 265.6 | Anisotropy data 485,520,520 [20]: 261.7 and 255.8 and 254.5 | Fb [20]: 0.9053 and 0.9116 and 1.006 and 0.8928 and 0.8606 and 0.9026 | Anisotropy [21]: 265.6 and 265.3 and 264.4 | Anisotropy data 485,520,520 [21]: 270.6 and 251.9 and 252.8 | Fb [21]: 0.9033 and 0.9261 and 0.9417 and 0.9012 and 0.8631 and 0.8867 | Anisotropy [22]: 264.9 and 261.9 and 261.5 | Anisotropy data 485,520,520 [22]: 260.9 and 250.1 and 251.9 | Fb [22]: 0.9085 and 0.9188 and 0.962 and 0.8906 and 0.8443 and 0.8627 | Anisotropy [23]: 263.7 and 259.1 and 261.9 | Anisotropy data 485,520,520 [23]: 272.8 and 249.1 and 251.5 | Fb [23]: 0.8864 and 0.8318 and 0.8857 | Fb (MN551 260.308 nM; Cycle 11 (50 min); column head blank in this cycle): 0.9094 and 0.923 and 0.9572 | Anisotropy [24]: 260.4 and 247.8 and 250.4 | Anisotropy based on Raw Data (485) [24]: 262.1 and 263.7 and 260.9 | Anisotropy [25]: 265.9 and 245.3 and 247.3 | Anisotropy based on Raw Data (485) [25]: 262.8 and 262.4 and 260.4 | Anisotropy [26]: 264.3 and 245.7 and 249.8 | Anisotropy based on Raw Data (485) [26]: 260.9 and 259.6 and 258 | Anisotropy [27]: 263.9 and 246.1 and 246.5 | Anisotropy based on Raw Data (485) [27]: 260.6 and 259.8 and 258.8
